The supplement of paper PMC8616043
Where a name gives a salt, the structure may show the parent alone. Some of the results follow. Repeats in this data set agree poorly, so a single value says little.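 PR50, a 50-repeat proline–arginine dipeptide protein from C9ORF72 (ALS/FTD), was expressed by transfection in U-2 OS human cells stably carrying a GFP sensor with import and classical export signals. Per-well nuclear-minus-cytoplasm GFP, normalized between in-plate DMSO (low) and PR-only (high), was scored versus other test wells; compounds well below zero were hits reversing PR.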

The compounds below were run on U-2 OS NCT-C biosensor cells expressing PR50 (assay: Z-score of normalised NCT-C biosensor translocation index in PR50-expressing cells; higher = more nuclear biosensor (more disrupted nuclear export)). Settings: 3 µM; 24 h.

Compound	Z-score
CC(C)OC(=O)C(C)(C)Oc1ccc(C(=O)c2ccc(Cl)cc2)cc1 [Fenofibrate]	inactive: 0.664
CCOC(=O)[C@@H](N)CCC(=O)N[C@@H](CSCc1ccccc1)C(=O)N[C@@H](C(=O)OCC)c1ccccc1 [Ezatiostat]	inactive: 1.55
Cc1cc2c(s1)Nc1ccccc1N=C2N1CCN(C)CC1 [Olanzapine]	inactive: -0.369
COc1cc2c(NC3CCN(C)CC3)nc(N3CCCN(C)CC3)nc2cc1OCCCN(C)C	active: -2.61
CC=CC1=C(C(=O)O)N2C(=O)[C@@H](NC(=O)[C@H](N)c3ccc(O)cc3)[C@H]2SC1 [Cefprozil]	inactive: 0.449
NC(=O)CC[C@H](N)C(=O)O [L-Glutamine]	inactive: -0.53
COC(=O)CCC(=O)CN [Methyl Aminolevulinate·HCl]	inactive: 0.0351
CCCNC(=O)Nc1ccc(Oc2ncnc3cc(OC)c(OC)cc23)cc1Cl	inactive: -0.473
O=C(O)c1cc(=O)c2c(Cl)cc(Cl)cc2[nH]1 [5,7-  Dichlorokynurenic acid]	inactive: -0.727
Cc1cn(-c2cc(NC(=O)c3ccc(C)c(Nc4nccc(-c5cccnc5)n4)c3)cc(C(F)(F)F)c2)cn1 [Nilotinib]	inactive: -0.0218
CCCCN(CCCC)CC(O)c1cc(Cl)cc2c1-c1ccc(Cl)cc1/C2=C/c1ccc(Cl)cc1 (centres undefined) [Lumefantrine]	inactive: -0.24
CC(C)(C)c1ccc(S(=O)(=O)/C=C/C#N)cc1	inactive: 2.66
O=c1[nH]c2cc(C(F)(F)F)ccc2n1-c1cc(C(F)(F)F)ccc1O	inactive: -0.579
COc1cc(C2Oc3cc([C@H]4Oc5cc(O)cc(O)c5C(=O)[C@@H]4O)ccc3OC2CO)ccc1O (some centres undefined) [Silybine]	inactive: 0.203
COc1cc(C2Oc3cc([C@H]4Oc5cc(O)cc(O)c5C(=O)[C@@H]4O)ccc3OC2CO)ccc1O (some centres undefined) [Silymarin]	inactive: 0.165
O=c1cc(-c2ccccc2)oc2cc(O)c(O)c(O)c12 [Baicalein]	inactive: -0.494
N[C@@H](CCCC(=O)O)C(=O)O [L-2-aminoadipic acid]	inactive: 0.426
O=c1[nH]c(=O)c2nc3ccccc3nc2[nH]1 [Alloxazine]	inactive: 0.171
CC(=O)O[C@H]1C[C@@]2(C)[C@@H](C[C@@H](O)[C@H]3[C@@]4(C)CC[C@@H](O)[C@@H](C)[C@@H]4CC[C@@]32C)/C1=C(\CCC=C(C)C)C(=O)O [Fusidic acid sodium salt]	inactive: -0.557
CC(=O)N[C@@H](CS)C(=O)O [Acetylcysteine]	inactive: 0.347
CC(=O)N[C@@H](CS)C(=O)O [L-Cysteine, N- Acetyl-]	inactive: 0.798
CC[C@H](C)C(=O)O[C@H]1C[C@@H](C)C=C2C=C[C@H](C)[C@H](CC[C@@H]3C[C@@H](O)CC(=O)O3)[C@H]21 [Lovastatin]	inactive: 0.374
CCN(CC)CCOC(=O)c1ccc(N)cc1 [Procaine hydrochloride]	inactive: -0.734

Compound	Z-score
N[C@H](C(=O)O)[C@@H]1CC(Cl)=NO1 [Acivicin]	inactive: -0.59
C[C@H](Cn1cnc2c(N)ncnc21)OCP(=O)(O)O [Tenofovir]	inactive: -0.36
CCCCNc1cc(C(=O)O)cc(S(N)(=O)=O)c1Oc1ccccc1 [Bumetanide]	inactive: 0.785
OC(CCN1CCCCC1)(c1ccccc1)C1CCCCC1 (racemic) [DL-  Trihexyphenidyl hydrochloride]	inactive: 0.599
CC(C)(C)c1ccc(C(=O)CCCN2CCC(OC(c3ccccc3)c3ccccc3)CC2)cc1 [Ebastine]	inactive: 0.55
CC[C@H](NC(=O)c1c(O)c(-c2ccccc2)nc2ccccc12)c1ccccc1 [Talnetant]	inactive: 2.67
NC(=O)OCC(COC(N)=O)c1ccccc1 [Felbamate]	inactive: 0.551
CCCCS(=N)(=O)CCC(N)C(=O)O (racemic) [DL-Buthionine- [S,R]-sulfoximine]	inactive: 3.28
COc1ccc(C[C@H](N)C(=O)N[C@H]2[C@@H](O)[C@H](n3cnc4c(N(C)C)ncnc43)O[C@@H]2CO)cc1 [Puromycin]	inactive: 1.31
COCc1nc2c([nH]1)c(=O)n(C)c(=O)n2CC(C)C [8-Methoxymethyl-3 isobutyl-1-methylxanthine]	inactive: -1.09
CC12CCc3occc3C1CCC13CC(=O)C(CCC12)C3 (centres undefined) [16-Oxocafestol]	inactive: -0.491
CCCCCCCCCC[Si](C)(C)CCC(=O)NC(Cc1ccc(C)cc1)c1ccccc1 (centres undefined) [Sandoz 58-035]	inactive: 0.586
Cc1c2c(c(O)c3c(O)cccc13)C(=O)O[C@@H]2[C@@H]1[C@H](O)C(=O)C(C(N)=O)=C(O)[C@H]1N(C)C [α-Apo-Oxytetracycline]	inactive: -0.729
COC(=O)N[C@H](C(=O)N[C@@H](Cc1ccccc1)[C@@H](O)CN(Cc1ccc(-c2ccccn2)cc1)NC(=O)[C@@H](NC(=O)OC)C(C)(C)C)C(C)(C)C [Atazanavir]	inactive: -0.404
COc1c(C)c2c(c(O)c1C/C=C(\C)CCC(=O)O)C(=O)OC2 [Mycophenolic acid]	inactive: -0.412
COc1c(C)c2c(c(O)c1C/C=C(\C)CCC(=O)O)C(=O)OC2 [Mycophenolic Acid]	inactive: 3.31
CCCCCNC(=N)N/N=C/c1c[nH]c2ccc(OC)cc12 [Tegaserod maleate]	inactive: -0.703
O=C(NCCN1CCOCC1)c1ccc(Cl)cc1 [Moclobemide]	inactive: -0.282
Cc1cc(Cl)ccc1OCCCC(=O)NO [Droxinostat]	inactive: -1.59
Cc1ccc(-n2sc(=O)n(Cc3ccc(F)cc3)c2=O)cc1	inactive: 0.706
NCCNCCNCCN [Trientine Dihydrochloride]	inactive: -0.215
CCCC(CCC)C(=O)O[C@H]1C[C@H]2CC[C@@H](C1)[N+]2(C)C [Anisotropine methyl bromide]	inactive: 1.62
Nc1c(CC(=O)O)cccc1C(=O)c1ccc(Br)cc1 [Bromfenac]	inactive: -0.421

Exported bar-delimited: entries from further up.
Compound | Z-score
CC(C)(C)c1ccc(S(=O)(=O)/C=C/C#N)cc1 | inactive: 2.66
O=c1[nH]c2cc(C(F)(F)F)ccc2n1-c1cc(C(F)(F)F)ccc1O | inactive: -0.579

Later entries

Compound	Z-score
OCCN1CCN(CCCN2c3ccccc3C=Cc3ccccc32)CC1 [Opipramol dihydrochloride]	inactive: 0.454
O=C(O)C=C1CCCc2ccccc2C1O (centres undefined)	inactive: -1.17
CN1C(=O)OC(C)(C)C1=O [Trimethadione]	inactive: 0.621
CC(=O)CCCCn1c(=O)c2c(ncn2C)n(C)c1=O [Pentoxifylline]	inactive: -0.519
COc1cc2c(cc1OCCCN1CCCC1)N=C(N)C21CCC1	inactive: -1.26
CN(C/C=C/c1ccccc1)Cc1cccc2ccccc12 [Naftifine·HCl]	inactive: -0.663
O=c1c(-c2ccc(O)cc2)coc2cc(O)ccc12 [Daidzein]	inactive: -0.688
CC1(C)CC[C@]2(C(=O)O)CC[C@]3(C)C(=CC[C@@H]4[C@@]5(C)CC[C@H](O)C(C)(C)[C@@H]5CC[C@]43C)[C@@H]2C1 [Oleanolic acid]	inactive: 0.0921
C[C@H]1O[C@@H](n2cc(F)c(=O)[nH]c2=O)[C@H](O)[C@@H]1O [5-fluoro-5'- deoxyuridine]	inactive: -0.167
C[n+]1cccc(C(N)=O)c1 [1-  Methylnicotinamide chloride]	inactive: -0.84
Clc1ccc(C(c2ccc(Cl)cc2)[n+]2ccn(CC(OCc3ccc(Cl)cc3Cl)c3ccc(Cl)cc3Cl)c2)cc1 (centres undefined) [Calmidazolium chloride]	inactive: -0.196
N[C@@H](Cc1cc(CP(=O)(O)O)cc(-c2ccccc2Cl)c1)C(=O)O [SDZ 220-581  hydrochloride]	inactive: 0.272
Cc1cc(C)cc(OCC2CNC(=O)O2)c1 (centres undefined) [Metaxalone]	inactive: 0.0605
CC(=O)O[C@H]1C[C@@H]2CC[C@@H]3[C@H](CC[C@@]4(C)[C@H]3C[C@H]([N+]3(C)CCCCC3)[C@@H]4OC(C)=O)[C@@]2(C)C[C@@H]1N1CCCCC1 [Vecuronium Bromide]	inactive: 0.194
O=C(O)CCNc1cc(N2CCc3ccccc3CC2)nc(-c2cccnc2)n1	active: -2.09
CCCCCCCC/C=C\CCCCCCCC(=O)NCCO [N-Oleoyl ethanolamine]	inactive: 0.827
C[C@@H](O)[C@H]1C(=O)N2C(C(=O)O)=C(S[C@@H]3CN[C@H](C(=O)N(C)C)C3)[C@H](C)[C@H]12 [Meropenem]	inactive: 0.614
C=C1CCN([C@H](C)[C@](O)(Cn2cncn2)c2ccc(F)cc2F)CC1 [Efinaconazole]	inactive: -0.195
CCN(CC)C(=O)/C(C#N)=C/c1cc(O)c(O)c([N+](=O)[O-])c1 [Entacapone]	inactive: -0.521
C[C@]12C=CC(=O)C=C1CC[C@H]1[C@@H]3C[C@@H](O)[C@](O)(C(=O)CO)[C@@]3(C)C[C@H](O)[C@@]12F [Triamcinolone]	inactive: -1.09
CC1(C)O[C@@H]2C[C@H]3[C@@H]4CCC5=CC(=O)CC[C@]5(C)[C@@]4(F)[C@@H](O)C[C@]3(C)[C@]2(C(=O)CCl)O1 [Halcinonide]	inactive: -0.983
CNCCCC12CCC(c3ccccc31)c1ccccc12 [Maprotiline hydrochloride]	inactive: 0.672
CNCCCC12CCC(c3ccccc31)c1ccccc12 [Maprotiline·HCl]	inactive: 0.664

2 consecutive entries already listed:
Compound	Z-score
N[C@@H](Cc1cc(CP(=O)(O)O)cc(-c2ccccc2Cl)c1)C(=O)O [SDZ 220-581  hydrochloride]	inactive: 0.272
Cc1cc(C)cc(OCC2CNC(=O)O2)c1 (centres undefined) [Metaxalone]	inactive: 0.0605
